The chains behind the UniProt entries cited, without tags or fusion partners. Where a name states a change or a piece, a line headed by the entry shows the natural chain unless it says otherwise.
UniProt Q5XUX0: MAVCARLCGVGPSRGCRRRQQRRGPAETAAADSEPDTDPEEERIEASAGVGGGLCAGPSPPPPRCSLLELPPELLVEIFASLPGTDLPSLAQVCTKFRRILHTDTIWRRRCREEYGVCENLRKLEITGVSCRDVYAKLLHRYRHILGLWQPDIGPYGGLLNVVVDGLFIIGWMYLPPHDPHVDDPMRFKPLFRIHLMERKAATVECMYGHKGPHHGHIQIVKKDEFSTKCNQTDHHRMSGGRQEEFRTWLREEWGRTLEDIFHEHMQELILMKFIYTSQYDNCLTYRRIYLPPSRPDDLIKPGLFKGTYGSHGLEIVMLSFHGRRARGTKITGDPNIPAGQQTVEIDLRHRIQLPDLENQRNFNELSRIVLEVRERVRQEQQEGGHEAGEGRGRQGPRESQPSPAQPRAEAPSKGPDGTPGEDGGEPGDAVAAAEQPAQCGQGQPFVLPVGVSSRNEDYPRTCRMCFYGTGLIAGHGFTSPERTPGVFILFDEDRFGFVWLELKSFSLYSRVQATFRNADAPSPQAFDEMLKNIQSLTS
UniProt P15104: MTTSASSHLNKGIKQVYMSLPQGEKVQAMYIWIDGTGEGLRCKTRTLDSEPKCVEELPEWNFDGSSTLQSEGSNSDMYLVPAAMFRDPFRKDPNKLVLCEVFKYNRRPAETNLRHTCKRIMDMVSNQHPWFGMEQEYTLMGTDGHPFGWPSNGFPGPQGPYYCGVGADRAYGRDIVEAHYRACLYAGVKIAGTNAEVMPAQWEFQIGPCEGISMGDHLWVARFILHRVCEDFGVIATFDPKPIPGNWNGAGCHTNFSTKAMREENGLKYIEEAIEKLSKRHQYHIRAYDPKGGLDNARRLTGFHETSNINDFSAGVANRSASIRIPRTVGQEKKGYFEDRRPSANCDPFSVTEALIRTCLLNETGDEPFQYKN
UniProt Q96NC0: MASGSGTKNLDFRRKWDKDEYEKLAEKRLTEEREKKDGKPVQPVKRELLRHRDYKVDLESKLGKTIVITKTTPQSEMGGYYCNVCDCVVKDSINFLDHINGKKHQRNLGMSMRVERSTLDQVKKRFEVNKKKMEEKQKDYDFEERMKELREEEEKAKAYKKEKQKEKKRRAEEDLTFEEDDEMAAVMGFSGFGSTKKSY

In PMC11821526:

Tests used:
Assay in all cases: affinity purification with mass spectrometry; HA–FBXO31(ΔF-box) or its D334N mutant stably expressed in FBXO31-knockout HEK293T cells; basal or 200 µM H2O2, with 500 nM epoxomicin; anti-HA magnetic beads, 300 mM NaCl, 50 mM Tris-HCl, 0.5% Igepal CA-630, 4 °C, 4 h; control: cells without bait cDNA
[1] = target: HA–FBXO31(ΔF-box) (human) (UniProt Q5XUX0)
[2] = target: HA–FBXO31(D334N,ΔF-box) (human) (UniProt Q5XUX0)
[3] = target: HA–FBXO31(D334N,ΔF-box) (human) (UniProt Q5XUX0); remark: listed apart in the source
[4] = target: HA–FBXO31(ΔF-box) (human) (UniProt Q5XUX0); remark: listed apart in the source

binding [1]: binds
Molecule: GLUL (glutamine synthetase) (from UniProt P15104 1-373)

binding [2]: binds
Molecule: ZMAT2 (from UniProt Q96NC0 1-199)

binding [3]: binds
binding [4]: no binding
B1: SUGT1 (protein, UniProt Q9Y2Z0 1-365)
chain: MAAAAAGTATSQRFFQSFSDALIDEDPQAALEELTKALEQKPDDAQYYCQRAYCHILLGNYCVAVADAKKSLELNPNNSTAMLRKGICEYHEKNYAAALETFTEGQKLDIETGFHRVGQAGLQLLTSSDPPALDSQSAGITGADANFSVWIKRCQEAQNGSESEVWTHQSKIKYDWYQTESQVVITLMIKNVQKNDVNVEFSEKELSALVKLPSGEDYNLKLELLHPIIPEQSTFKVLSTKIEIKLKKPEAVRWEKLEGQGDVPTPKQFVADVKNLYPSSSPYTRNWDKLVGEIKEEEKNEKLEGDAALNRLFQQIYSDGSDEVKRAMNKSFMESGGTVLSTNWSDVGKRKVEINPPDDMEWKKY

Read-outs that look alike come from different tables or passages of the source. These are yes or no findings as the source states them, for the method shown. Binding seen in cells or lysates may run through a third protein. Here binding means that the protein was enriched with, or labelled near, the bait; the list need not be complete. For some of these results: No binding means not detected with the bait. Each block holds one molecule with its values, some of them ahead of it.
